# Reference: patent US20230310621A1, “COMPLEXES FOR THE DELIVERY OF PROTEINACEOUS AGENTS” (priority 2020, published 2023)
# Assay: DLS monitoring of PAEC formation with different surfactants
# Assay type: physicochemical
# Settings: P24/CpG/surfactant/DA002 50/20/2 to 100/90 μg/mL
row,Molecule,group of surfactant by PAEC formation (DLS)
1,Tween 85,Group 3
2,"C[C@H](CCC(=O)O)[C@H]1CC[C@H]2[C@@H]3CC[C@@H]4C[C@H](O)CC[C@]4(C)[C@H]3C[C@H](O)[C@]12C [D-Chol, deoxycholate]",Group 1
3,"C[C@H](CCC(=O)[O-])[C@H]1CC[C@H]2[C@@H]3[C@H](O)C[C@@H]4C[C@H](O)CC[C@]4(C)[C@H]3C[C@H](O)[C@]12C.[Na+] [Chol, sodium salt of cholic acid]",Group 1
4,"CCCCCCCCCCCCOS(=O)(=O)[O-].[Na+] [Free SDS, sodium dodecyl sulphate]",Group 2
